In patent US8129499B2 (priority 2008, dated 2012):
Read-outs that look alike come from different tables or passages of the source. Not every detail of the peptide structures is certain; ends, links or a residue may be inferred. Some entries repeat one wording, which the source may state once for all of them. No end group written: not given here.

Sequences of proteins named here, by UniProt entry; tags and fusion partners are left off.
UniProt P03468, whole entry, looked up: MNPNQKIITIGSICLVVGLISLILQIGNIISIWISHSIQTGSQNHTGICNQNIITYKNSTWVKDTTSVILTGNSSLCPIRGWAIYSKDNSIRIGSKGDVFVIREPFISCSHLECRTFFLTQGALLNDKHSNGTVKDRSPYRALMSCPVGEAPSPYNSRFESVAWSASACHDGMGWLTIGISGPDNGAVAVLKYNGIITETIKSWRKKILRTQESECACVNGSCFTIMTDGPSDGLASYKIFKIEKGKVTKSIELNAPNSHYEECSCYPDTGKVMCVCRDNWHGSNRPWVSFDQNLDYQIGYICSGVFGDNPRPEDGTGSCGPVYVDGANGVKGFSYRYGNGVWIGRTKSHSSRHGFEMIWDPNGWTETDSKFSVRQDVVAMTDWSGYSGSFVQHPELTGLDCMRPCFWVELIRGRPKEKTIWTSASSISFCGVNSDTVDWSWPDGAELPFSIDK

What was measured:
[1] = system: influenza viruses; details: in vitro; cited from earlier work
[2] = target: Neuraminidase (NA) of PR/8 virus (Influenza A virus, UniProt P03468); type: biochemical, influenza virus A/PuertoRico/8/34 (PR/8, H1N1); details: 1, 5, 10 or 30 μM peptide, in words
[3] = system: PR/8 virus; type: cell-based, influenza virus A/PuertoRico/8/34 (PR/8, H1N1)
[4] = system: PR/8 virus; design: species or system influenza virus A/PuertoRico/8/34 (PR/8, H1N1)
[5] = system: purified A/PR/8/34
[6] = system: Purified virion HA (Tk/Wi H5N1); type: biochemical, influenza virus A/Turkey/Wisconsin/68
[7] = system: purified PR/8 virus; design: species or system influenza virus A/PuertoRico/8/34 (PR/8, H1N1)
[8] = system: H5N1 influenza virus; details: administered pre- or post-infection, in words; cited from earlier work

Row | Sequence | concentration inhibiting virus replication [1] [µM] | inhibition of NA activity [2] | plaque reduction ([3]; 5 μM or greater concentrations, PR/8 MOI 0.005) | HA activity of gradient fractions ([4]; peptide-treated virus vs virus alone, in words) | HA inhibition ([5]; 10 μM peptide, 64 HA units of purified A/PR/8/34, Yes/No) | trypsin sensitivity of peptide-treated HA ([6]; 10 μM or 30 μM peptide, 5 μg TPCK-trypsin, in words) | virion aggregation by electron microscopy ([7]; 10 μM peptide, 1 hour at 37° C., 512 HA units PR/8, in words) | clinical signs and survival [8] | effect on plaque morphology or numbers [3] | HA inhibition [5] | trypsin sensitivity of peptide-treated HA [6] | virion aggregation by electron microscopy [7] | HA activity of gradient fractions [4] | virion structural integrity by electron microscopy [7]
1 | RRKKAAVALLPAVLLALLAP [EB, reference compound] | ≥ 10 | did not inhibit NA activity | approximately 92% | considerably lower | Yes | remained trypsin-resistant | large clusters | prevented clinical signs of H5N1 influenza virus infection and increased survival | – | – | – | – | – | –
2 | RRKKLAALPLVLAAPLAVLA [EBX, reference compound] | – | – | – | – | – | – | – | – | no effect | No | remained trypsin-resistant | individual virions were uniformly scattered across the field | – | –
3 | RRKKVALLAVLLALLA [SEQ. ID. NO: 32, RRKKVALLAVLLALLA] | – | – | – | – | – | – | – | – | – | Yes | remained trypsin-resistant | large aggregates | no detectable HA activity | severe alteration to structural integrity
